{
  "source": "patent US8759326B2",
  "about": "“Drug combinations containing PDE4 inhibitors and NSAIDs” (Boehringer Ingelheim International GmbH, priority 2009, dated 2014)",
  "key": {"male Wistar rats [1]": {"system": "male Wistar rats", "experiment": "Experiment 4: diarrhoea and mesentery histopathology in rats, roflumilast with or without SC-560 or lumiracoxib", "format": "in vivo, rat"}, "male Wistar rats [2]": {"system": "male Wistar rats", "experiment": "Experiment 3: weight loss, leukocytosis and neutrophilia in rats, roflumilast with or without SC-560 or lumiracoxib", "format": "in vivo, rat", "conditions": "2 mg/kg p.o. at 0800 and 1700, four days"}, "[3]": {"conditions": "animals affected out of animals examined, p.o. four days, roflumilast 10 mg/kg at 1300, SC-560 or lumiracoxib 2 mg/kg at 0800 and 1700, 95 hours after t0"}},
  "data": [
    {"smiles": "COc1ccc(-n2nc(C(F)(F)F)cc2-c2ccc(Cl)cc2)cc1", "note": "[SC-560]", "values": [
      {"measurement": "protective effect on the histopathological findings (multifocal perivascular mononuclear infiltration or proliferation of fibroblasts in the mesentery)", "setting": "male Wistar rats [1]; SC-560 2 mg/kg p.o. at 0800 and 1700 co-administered with roflumilast 10 mg/kg, four days", "result": "only a very slight protective effect"},
      {"measurement": "Mesentery: Proliferation of fibroblasts", "setting": "male Wistar rats [1]; [3]", "result": "0/5"},
      {"measurement": "Mesentery: multifocal perivascular mononuclear infiltration (=inflammation parameter)", "setting": "male Wistar rats [1]; [3]", "result": "0/5"},
      {"measurement": "parameters measured after the administration of the NSAID alone, compared with control", "setting": "male Wistar rats [2]", "result": "very similar to the control groups"}
    ]}
  ]
}
